# Results taken from patent publication US20190350240A1, “Electrolyte-Enhanced Sweetener and Consumable Products Obtained” (priority 2018, published 2019).
# Assay: Salt screen summary (sequence of four salt screens)
# Conditions: not given
row,Compound,Does the Electrolyte Salt Pass All Salt Screens?
1,"O=C([O-])[O-].[Ca+2] [Calcium Carbonate, calcium carbonate]","NO, Develops chalky and dry flavor"
2,"[Ca+2].[Cl-].[Cl-] [Calcium Chloride, calcium chloride]","NO, Develops clumps and stickiness"
3,"[Cl-].[Cl-].[Mg+2] [Magnesium Chloride, magnesium chloride]","NO, Develops clumps and stickiness"
4,"O=S(=O)([O-])[O-].[Mg+2] [Magnesium Sulfate, magnesium sulfate]","NO, Develops sour and dry flavor"

# Same assay, conditions: summary of four salt screens
row,Compound,Does the Electrolyte Salt Pass All Salt Screens?
1,"CC(O)C(=O)[O-].CC(O)C(=O)[O-].[Ca+2] (stereo not shown) [Calcium Lactate, calcium lactate]","NO, Develops muddy flavor"
2,"[Cl-].[K+] [Potassium Chloride, potassium chloride]",Yes
3,"O=C([O-])O.[Na+] [Sodium Bicarbonate, sodium bicarbonate]","NO, Develops muddy flavor"
4,"[Cl-].[Na+] [Sodium Chloride, sodium chloride]",Yes
5,"O=P([O-])(O)O.[Na+] [Sodium Phosphate Monobasic, sodium phosphate monobasic]","NO, Develops muddy flavor"
6,magnesium citrate,"NO, Difficult to dissolve"

# Some entries repeat one wording, which the source may state once for all of them.
